{"source": "patent US6706766", "binders": {"B1": {"name": "CIDE-N domain of CIDE-B (protein, UniProt Q9UHD4 1-116, looked up)", "chain": "MEYLSALNPSDLLRSVSNISSEFGRRVWTSAPPPQRPFRVCDHKRTIRKGLTAATRQELLAKALETLLLNGVLTLVLEEDGTAVDSEDFFQLLEDDTCLMVLQSGQSWSPTRSGVL"}}, "key": {"CIDE-N domain of DFF40": {"target": "T1, CIDE-N domain of DFF40 (UniProt O76075)", "T1 sequence (looked up)": "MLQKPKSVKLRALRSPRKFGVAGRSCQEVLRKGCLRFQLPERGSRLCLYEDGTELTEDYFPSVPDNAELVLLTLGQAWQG", "assay": "NMR spectroscopy"}, "CIDE-N domain of DFF45": {"target": "T2, CIDE-N domain of DFF45 (UniProt O00273)", "T2 sequence (looked up)": "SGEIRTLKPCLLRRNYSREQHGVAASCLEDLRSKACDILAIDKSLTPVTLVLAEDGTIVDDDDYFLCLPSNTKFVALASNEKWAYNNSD", "assay": "NMR spectroscopy"}}, "note": "These are yes or no findings as the source states them, for the method shown. Some entries that bind do so weakly or less than the wild type.", "data": [{"binder": "B1", "values": [{"measurement": "binding", "setting": "CIDE-N domain of DFF40", "value": "binds"}, {"measurement": "binding", "setting": "CIDE-N domain of DFF45", "value": "binds"}]}]}
